## Primary screen of a compound library

Chains of the proteins cited; added tags and fusions are not shown. Residues count along the entry.
UniProt Q8IDJ8, 1-583: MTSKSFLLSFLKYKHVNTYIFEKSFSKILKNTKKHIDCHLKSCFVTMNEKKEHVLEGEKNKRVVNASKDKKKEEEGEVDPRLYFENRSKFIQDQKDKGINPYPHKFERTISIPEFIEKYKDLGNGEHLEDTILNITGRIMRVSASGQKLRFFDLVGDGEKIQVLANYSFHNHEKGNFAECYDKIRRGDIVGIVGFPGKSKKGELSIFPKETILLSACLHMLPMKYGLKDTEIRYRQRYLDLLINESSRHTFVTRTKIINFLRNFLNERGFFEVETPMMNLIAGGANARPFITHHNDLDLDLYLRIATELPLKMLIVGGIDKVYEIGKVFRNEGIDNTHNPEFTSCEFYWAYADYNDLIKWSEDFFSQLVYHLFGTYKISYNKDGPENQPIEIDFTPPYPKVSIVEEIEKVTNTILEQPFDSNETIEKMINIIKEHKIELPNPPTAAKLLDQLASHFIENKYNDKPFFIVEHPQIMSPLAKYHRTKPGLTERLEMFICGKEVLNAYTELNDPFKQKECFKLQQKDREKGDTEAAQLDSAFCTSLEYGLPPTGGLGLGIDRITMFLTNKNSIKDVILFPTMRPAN
UniProt P9WFT3, whole entry: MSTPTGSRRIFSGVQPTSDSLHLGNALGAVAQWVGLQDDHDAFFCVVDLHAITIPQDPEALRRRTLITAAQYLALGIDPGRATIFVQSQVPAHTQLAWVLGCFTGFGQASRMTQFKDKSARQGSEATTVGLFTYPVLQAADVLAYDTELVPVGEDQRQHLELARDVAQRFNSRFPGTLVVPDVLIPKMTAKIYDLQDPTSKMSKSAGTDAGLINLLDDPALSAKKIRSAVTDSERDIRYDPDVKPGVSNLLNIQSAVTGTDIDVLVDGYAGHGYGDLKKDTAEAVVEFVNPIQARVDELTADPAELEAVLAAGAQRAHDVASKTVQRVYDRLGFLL

Measurements from “University of Dundee, Small-Polar-MMV Screening Library” (2021), ChEMBL document CHEMBL3988442.

A: 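Enzyme assay of the cytosolic lysyl-tRNA synthetase in 384-well plates, read by luminescence. Target: Lysine-tRNA ligase, Plasmodium falciparum 3D7 (UniProt Q8IDJ8). Compounds at 30 µM. Higher reads as stronger inhibition, judged from the few compounds that gave an IC50. Size under these conditions: about 69,000 compounds, about 49 of them at 50% or above in at least one test.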
B: 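Enzyme assay of tryptophanyl-tRNA synthetase; the read-out is not stated. Target: Tryptophan-tRNA ligase, Mycobacterium tuberculosis (UniProt P9WFT3). Tested at 10 µM. Higher most likely means stronger inhibition; the record gives no direction and few retests gave an IC50. About 65,000 compounds were tested under these conditions; 0.098% (about 64) showed 50% or more at least once.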
C: 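Cell assay of Leishmania donovani living inside macrophages; the read-out is not stated. Compounds at 30 µM. Direction is inferred from retests: higher values go with stronger inhibition. Of about 69,000 compounds tested this way, about 1,000 (1.5%) reached 50% or more in at least one test.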

The filed quantity is “Percent Effect” (%). The controls that fix the scale are not given in the record; negative values are as filed. This is an unselected part of the compounds tested. A dash means the value is not listed here; it may have been measured.

* c1ccc(Cn2ccnc2CNCC2CCCN2c2cccnn2)cc1 (centres undefined) | A: -2.193%; B: -1.428%; C: -33.5%
* CCOC(=O)C1(Cc2ccccc2-c2ccccc2OC)CCNCC1 | A: 1.312%; B: -2.732%
* O=C(NCCc1nc(C2CC2)no1)[C@H]1CNC[C@H](C(=O)N2CCCC2)C1 | A: 7.836%; B: 4.888%; C: 5.342%
* COc1ccc(CN(C)C(=O)c2nnc(CN(C)C)o2)cc1 | A: 2.752%; B: -5.131%; C: 15.9%
* Cc1ccc(NC2CCN(C(=O)c3ccncc3)CC2)nn1 | A: 2.697%; B: 32.63%; C: 23.06%
* Cc1ccc(O)c(-c2cc(NCCO)nc3[nH]ccc23)c1 | A: 0.5615%; B: -0.9025%; C: 18.72%
* CN(Cc1nccn1CC(F)(F)F)C(=O)c1ccc(F)cc1F | A: 4.748%; B: -3.919%; C: -24.97%
* Cc1cnn(CC2CN(Cc3cccc(OC(C)C)c3)CCO2)c1 (centres undefined) | A: 1.004%; B: -4.187%; C: 18%
* Cc1nc(C2CCCN2CCCS(N)(=O)=O)no1 (centres undefined) | A: -4.764%; B: 8.977%; C: 6.42%
* COc1ccccc1-c1noc(CNc2ccc(F)cc2OCCO)n1 | A: 4.106%; B: 2.728%; C: 14.86%
* Cc1ccc(-c2ccccc2CC2CNCCNC2=O)c(C)c1.Cl (centres undefined) | C: -13.21%
* COc1ccccc1C(=O)N1CC(Cc2nccc3ccn(C)c23)C1 | A: 6.063%; B: -1.923%; C: 10.59%
* Cc1ccc(CN2Cc3nnn(C)c3C(COCC3CC3)C2)s1 (centres undefined) | A: 2.037%; B: 1.543%
* CCOc1ncnc2c1CCN(S(=O)(=O)c1ccccc1)CC2 | A: 2.236%; C: 0.08646%
* CCN(Cc1cccc(F)c1)c1ccc2nnnn2n1 | A: 50.82%; B: 0.8474%; C: -28.2%
* CCn1cc(S(=O)(=O)N2CCN(S(=O)(=O)c3ccc(Br)s3)CC2)cn1 | A: 2.712%; B: 1.152%; C: 43.61%
* O=C(N[C@@H]1CN(Cc2c[nH]nc2-c2ccccc2)C[C@H]1O)c1cc[nH]n1 | A: 2.079%; B: 0.3906%; C: 24.83%
* O=C(NCc1cccs1)[C@@H]1CC[C@@H]2[C@@H](CCN2CC2CCC2)O1 | A: 1.538%; B: 2.075%
* O=C(CSC1CCCC1)N1CCN(C(=O)C2CC2c2ccccc2)CC1 (centres undefined) | A: 8.214%; B: 5.083%; C: -26.65%
* CN1CCCc2cc(CNC(=O)c3cccnc3O)ccc21 | A: 1.267%; B: -1.467%; C: -0.5985%
* Cn1cc(C(=O)N[C@H]2CN(S(C)(=O)=O)[C@@H]3CCCO[C@H]23)cn1 | A: 4.588%; B: -4.719%
* O=C(C1CCOC1)N1CCc2ncnc(-c3cccnc3)c2CC1 (centres undefined) | A: 1.01%; B: 7.9%; C: -6.628%
* O=C(C1CCC1)N1CCN(Cc2ccccc2F)[C@H]2CS(=O)(=O)C[C@H]21 | A: 5.467%; B: -1.687%
* CCC(=O)c1ccc(OCC(=O)NCC2CCCO2)cc1 (centres undefined) | A: 5.098%; B: -2.183%; C: 7.162%
* O=C(O)C(F)(F)F.O=C(O)C(F)(F)F.[H][C@@]12CN(Cc3nccs3)C[C@H](C(=O)N3CCCCO3)[C@]1([H])CCO2 | C: -6.42%
* O=C(c1ccnnc1)N1CCN(Cc2cccnc2)c2ncccc2C1 | A: -3.774%; B: -6.826%
* CS(=O)(=O)Cc1ccc(C(=O)NCC2Cc3ccccc3O2)cc1 (centres undefined) | A: 5.847%; B: -1.488%; C: -9.961%

The last 3 entries again:

| SMILES | A | B | C |
|---|---|---|---|
| `O=C(O)C(F)(F)F.O=C(O)C(F)(F)F.[H][C@@]12CN(Cc3nccs3)C[C@H](C(=O)N3CCCCO3)[C@]1([H])CCO2` | - | - | -6.42 |
| `O=C(c1ccnnc1)N1CCN(Cc2cccnc2)c2ncccc2C1` | -3.774 | -6.826 | - |
| `CS(=O)(=O)Cc1ccc(C(=O)NCC2Cc3ccccc3O2)cc1` (centres undefined) | 5.847 | -1.488 | -9.961 |